Test results reported in patent US5892064A, “Chemiluminescent dialkyl-substituted 1,2-dioxetanes, methods of synthesis and use” (Lumigen, Inc., priority 1997, dated 1999).

How the values were obtained:
[1] = Fluoride-triggered (TBAF) chemiluminescent decomposition of dioxetanes in DMSO; assay type: physicochemical; conditions: for total chemiluminescence intensity generated by fluoride-triggering, compared: 10 μL of 10^-6 M dioxetane with 50 μL of 1M TBAF in DMSO; for Total intensity: [F-] 1M, DMSO
Protocol: Chemiluminescence intensities and rate measurements were performed using either a Turner Designs (Sunnyvale, Calif.) model TD-20e luminometer or a luminometer built in house (Black Box) which uses a photon counting photomultiplier. Temperature control of samples analyzed in the luminometers was achieved by means of a circulating bath connected to the instrument. Quantitative measurement of light intensities on the Turner luminometer was extended beyond the 10^4 linear range of the detector by a neutral density filter. Data collection was controlled by an Apple MacIntosh SE/30 computer using the LUMISOFT data reduction program (Lumigen, Inc., Southfield, Mich.).
Stock solutions of dioxetanes 2c, 2e, 2g and for comparison, 4-(3-t-butyldimethylsilyloxyphenyl)-4-methoxyspiro [1,2-dioxetane-3,2'-tricyclo[3.3.1.1^3,7 ]decane] (2j), (preparation described in U.S. Pat. No. 4,962,192) were made to a concentration of 10^-6 M in DMSO. Serial dilutions in DMSO were made as required. Ten μL aliquots were triggered in 7×50 mm polypropylene tubes in a Turner Designs TD-20e luminometer by injection of 50 μL of a solution of tetra-n-butylammonium fluoride (TBAF) in DMSO (1M-10^-4 M) in the appropriate solvent, typically DMSO. Light intensity was attenuated when needed by a neutral density filter. All experiments were conducted at ambient temperature. Peak light intensity and decay rate diminished as the fluoride concentration was decreased. At the lowest concentration of fluoride, decay kinetics were not cleanly first order.
The half lives for decay were essentially independent of dioxetane concentration.
The rates of fluoride-triggered decomposition of dioxetanes 2c, h, i and j were compared in DMSO under identical conditions, i.e. 10 μL aliquot of a 10^-6 M solution of dioxetane with 50 μL of 1M TBAF in DMSO. […]

alkaline phosphatase [2] = assay: Relative chemiluminescence quantum yields: total light after complete dephosphorylation by alkaline phosphatase; assay type: biochemical
alkaline phosphatase [3] = assay: Chemiluminescent detection of alkaline phosphatase on nylon membrane (X-ray film); assay type: biochemical; conditions: 1.1 fmol to 1.1 amol AP on nylon, 0.33 mM dioxetane, 1 mg/mL Enhancer A
[4] = Enhancer A (1 mg/mL), 100 μL, 3.36×10^-13 mol AP
[5] = Enhancer B (0.5 mg/mL), 100 μL, 3.36×10^-13 mol AP
[6] = Enhancer C (0.5 mg/mL), 100 μL, 3.36×10^-13 mol AP
[7] = Enhancer: None (0.2M buffer), 500 μL, pH 9.6
[8] = Enhancer: None (0.75M buffer), 500 μL, pH 9.6

COC1(c2cccc(OC(C)=O)c2)OOC1(C(C)C)C(C)C (stereo not drawn) [Dioxetane 2c]
total chemiluminescence intensity generated by fluoride-triggering, compared [1]: same chemiluminescence output within a factor of two

COC1(c2cccc(OP(=O)(O)O)c2)OOC1(C(C)C)C(C)C (stereo not drawn) [Dioxetane 2f]
Total Light Intensity (alkaline phosphatase [2]; [4]): 1.19 × 10^7 RLU
Total Light Intensity (alkaline phosphatase [2]; [5]): 1.65 × 10^6 RLU
Total Light Intensity (alkaline phosphatase [2]; [6]): 4.15 × 10^7 RLU
Total Light Intensity (alkaline phosphatase [2]; [7]): 2.82 × 10^5 RLU
Total Light Intensity (alkaline phosphatase [2]; [8]): 5.55 × 10^4 RLU
detection of alkaline phosphatase on membrane, images compared (alkaline phosphatase [3]): equivalent images and detection sensitivity

COC1(c2cccc(O[Si](C)(C)C(C)(C)C)c2)OOC1(C1CC1)C1CC1 (stereo not drawn) [Dioxetane 2g]
total chemiluminescence intensity generated by fluoride-triggering, compared [1]: same chemiluminescence output within a factor of two

COC1(c2cccc(O[Si](C)(C)C(C)(C)C)c2)OOC1(C1CCCCC1)C1CCCCC1 (stereo not drawn) [Dioxetane 2h]
signal relative to background ([1]; 10^-9 M dioxetane solution, 50 μL of 1M TBAF in DMSO): 1.5 times
total chemiluminescence intensity generated by fluoride-triggering, compared [1]: same chemiluminescence output within a factor of two
Total intensity ([1]; [Dioxetane 2h] 10^-6 M): 1.9 × 10^4 TLU
Total intensity ([1]; [Dioxetane 2h] 10^-7 M): 2.0 × 10^3 TLU
Total intensity ([1]; [Dioxetane 2h] 10^-8 M): 2.1 × 10^2 TLU
Total intensity ([1]; [Dioxetane 2h] 10^-9 M): 1.5 × 10^1 TLU

COC1(c2cccc(O)c2)OOC1(C1CCCCC1)C1CCCCC1 (stereo not drawn) [Dioxetane 2i]
total chemiluminescence intensity generated by fluoride-triggering, compared [1]: same chemiluminescence output within a factor of two

COC1(c2cccc(OP(=O)(O)O)c2)OOC12C1CC3CC(C1)CC2C3 (stereo not drawn) [Dioxetane 2k]
Total Light Intensity (alkaline phosphatase [2]; [4]): 9.0 × 10^6 RLU
Total Light Intensity (alkaline phosphatase [2]; [5]): 2.09 × 10^6 RLU
Total Light Intensity (alkaline phosphatase [2]; [6]): 3.65 × 10^7 RLU
Total Light Intensity (alkaline phosphatase [2]; [7]): 1.55 × 10^5 RLU
Total Light Intensity (alkaline phosphatase [2]; [8]): 4.41 × 10^4 RLU
detection of alkaline phosphatase on membrane, images compared (alkaline phosphatase [3]): equivalent images and detection sensitivity

Some entries repeat one wording, which the source may state once for all of them.
